Experimental findings from publication PMC4946998 (Journal of cellular physiology, 2016) are described below.

Where two headings read alike, the source gives them in different places.

For assay [1], the system named is MMP-8 mRNA transcripts. The class given is in vivo. The settings on record: WT (B6) mice, topical 0.1% Dex QID, naïve control as calibrator.
For assay [2], the system named is Myeloperoxidase (MPO) activity. The conditions noted are these: CM.
Assay [3] has as its system MMP-1 immunoreactivity; Gr-1+ cells. The settings on record: WT mice, CM, topical Dex; not in MMP-8KO.

With `C[C@@H]1C[C@H]2[C@@H]3CCC4=CC(=O)C=C[C@]4(C)[C@@]3(F)[C@@H](O)C[C@]2(C)[C@@]1(O)C(=O)CO` [Dex, Dexamethasone], the “relative fold of MMP-8 gene expression in whole cornea (mean±SEM)” value was determined as 2033.69±0.50 fold in assay [1] (CM 2D) and 319.55±0.55 fold in assay [1] (CM 5D). For the same molecule, in assay [2] (MMP-8KO mice, topical Dex, still significantly higher than WT Dex treated), the “MPO activity versus BSS” value was “significantly decreased MPO activity”. The “MPO activity in whole cornea lysates” value in assay [2] (WT mice, topical Dex (BSS 9.4 mU)) worked out at 5.1 mU. The “MMP-1 immunoreactivity by corneal epithelium” value in assay [3] is reported as “decreased MMP-1 immunoreactivity”.
